In assay [1] the target is recombinant human RAGE-Fc (human) (UniProt Q15109). Nature of the assay: co-IP; recombinant rh Ac-APE1/Ref-1 mixed with rh RAGE-Fc; immunoprecipitation with anti-APE1/Ref-1 or anti-RAGE antibody, blot with the other; both purified.
For assay [2] the target is unchanged. Nature of the assay: co-IP; conditioned medium of ASA-treated MDA-MB-231 cells (secreted Ac-APE1/Ref-1) mixed with RAGE-Fc; immunoprecipitation with anti-APE1/Ref-1 or anti-RAGE antibody, blot with the other; only the target purified.

By UniProt entry, the sequences of proteins in these tests, tags left out. Residues count along the entry.
UniProt Q15109, residues 23-342: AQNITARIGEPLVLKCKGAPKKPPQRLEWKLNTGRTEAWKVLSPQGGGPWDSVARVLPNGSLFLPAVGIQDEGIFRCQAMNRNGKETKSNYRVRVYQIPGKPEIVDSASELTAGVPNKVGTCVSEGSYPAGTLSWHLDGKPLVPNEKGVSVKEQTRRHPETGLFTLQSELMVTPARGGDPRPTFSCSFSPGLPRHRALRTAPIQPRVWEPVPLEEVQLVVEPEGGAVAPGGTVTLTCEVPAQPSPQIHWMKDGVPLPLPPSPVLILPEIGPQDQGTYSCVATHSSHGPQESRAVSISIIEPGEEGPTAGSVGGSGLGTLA
UniProt P27695: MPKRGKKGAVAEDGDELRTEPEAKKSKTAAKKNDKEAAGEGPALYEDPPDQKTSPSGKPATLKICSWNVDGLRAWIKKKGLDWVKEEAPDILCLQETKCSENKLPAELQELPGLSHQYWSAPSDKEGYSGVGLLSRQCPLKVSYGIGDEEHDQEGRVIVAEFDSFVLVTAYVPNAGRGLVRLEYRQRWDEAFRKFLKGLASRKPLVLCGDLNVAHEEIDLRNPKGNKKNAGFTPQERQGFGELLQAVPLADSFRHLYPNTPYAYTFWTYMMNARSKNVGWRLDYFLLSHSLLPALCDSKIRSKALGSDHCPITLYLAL

These are yes or no findings as the source states them, for the method shown. For some assays here: In cells and extracts the contact can be indirect. Some results given as binding are weak or reduced against the parent protein; the word gives no strength.

For the substance “recombinant human acetylated APE1/Ref-1 (apurinic apyrimidinic endonuclease 1/redox factor-1) (from UniProt P27695 1-318)”, the binding result in assay [1] was “binds”.

For “secreted acetylated APE1/Ref-1 from ASA/TSA-treated MDA-MB-231 cells (from UniProt P27695 1-318)”, in assay [2], the binding result is on record as “binds”.

Values taken from PMC4695125.
